Consider one compound from patent publication US6008258A (priority 1998, dated 1999).

In assay [1] the test system is NMDA receptor (noncompetitive MK-801 site), rat forebrain. The class given is binding.
Assay [2] deals with rat. The class given is in vivo. To be noted: day 5 vs day 1.

Structures are written as SMILES. Some results are limits rather than exact numbers.

`CN1CC[C@]23c4c5ccc(O)c4O[C@H]2[C@@H](O)C=C[C@H]3[C@H]1C5` [Morphine]: in assay [1], the “displacement of [3H]MK-801 binding” value is reported as “did not displace”. Moreover, the Ki in assay [1] (read-out: [3H]MK-801 Ki, forebrain) is greater than 100 µM. In addition, in assay [2], the “shift in ED50 for IT morphine in morphine treated group” value is 37 fold.
